Laboratory results as given in patent publication US20240010998A1, “FLAVONE 4'-O-METHYLTRANSFERASE GENE AND USE FOR SAME” (SUNTORY HOLDINGS LIMITED, priority 2020, published 2024).

Assay: Detection of embigenin in fringed iris petals and leaves by HPLC pigment analysis
Set-up: species or system fringed iris (Iris japonica)

## COc1ccc(-c2cc(=O)c3c(O)c([C@@H]4O[C@H](CO)[C@@H](O)[C@H](O)[C@H]4O)c(OC)cc3o2)cc1 [Embigenin, 7,4′-dimethoxyisovitexin]
Fringed iris leaves
  Embigenin (mg content per 1 g dry weight): 0.0 mg per 1 g dry weight
Fringed iris petals
  Embigenin (mg content per 1 g dry weight): 6.6 mg per 1 g dry weight
